This series can be described thus: general procedure: Fmoc solid-phase peptide synthesis; 2-chlorotrityl chloride resin; HCTU (TBTU/DIPEA for glycosylated Asn; HOBt/DIC after it). Particulars: late stage modification step.

One substance from patent US9802996B2 (Glytech, Inc., priority 2011, dated 2017) can be followed below.

Strings that start with PEPTIDE1 are HELM notation: dots part the residues, brackets hold end groups and non-standard residues.

Regarding “PEPTIDE1{S.A.N.S.N.P.A.M.A.P.R.E.R.K.A.G.C.K.[C(GlcNAc)].F.F.W.K.T.F.T.S.C}$PEPTIDE1,PEPTIDE1,17:R3-28:R3$$$V2.0”, the step yield result is listed as “yield 64%”.
